Results taken from paper PMC8052847.
No constants are given. Whether binding was seen depends on the method and setting. Binding seen in cells or lysates may run through a third protein. Some results given as binding are weak or reduced against the parent protein; the word gives no strength.

Chains of the proteins cited; added tags and fusions are not shown.
UniProt Q9UBN7: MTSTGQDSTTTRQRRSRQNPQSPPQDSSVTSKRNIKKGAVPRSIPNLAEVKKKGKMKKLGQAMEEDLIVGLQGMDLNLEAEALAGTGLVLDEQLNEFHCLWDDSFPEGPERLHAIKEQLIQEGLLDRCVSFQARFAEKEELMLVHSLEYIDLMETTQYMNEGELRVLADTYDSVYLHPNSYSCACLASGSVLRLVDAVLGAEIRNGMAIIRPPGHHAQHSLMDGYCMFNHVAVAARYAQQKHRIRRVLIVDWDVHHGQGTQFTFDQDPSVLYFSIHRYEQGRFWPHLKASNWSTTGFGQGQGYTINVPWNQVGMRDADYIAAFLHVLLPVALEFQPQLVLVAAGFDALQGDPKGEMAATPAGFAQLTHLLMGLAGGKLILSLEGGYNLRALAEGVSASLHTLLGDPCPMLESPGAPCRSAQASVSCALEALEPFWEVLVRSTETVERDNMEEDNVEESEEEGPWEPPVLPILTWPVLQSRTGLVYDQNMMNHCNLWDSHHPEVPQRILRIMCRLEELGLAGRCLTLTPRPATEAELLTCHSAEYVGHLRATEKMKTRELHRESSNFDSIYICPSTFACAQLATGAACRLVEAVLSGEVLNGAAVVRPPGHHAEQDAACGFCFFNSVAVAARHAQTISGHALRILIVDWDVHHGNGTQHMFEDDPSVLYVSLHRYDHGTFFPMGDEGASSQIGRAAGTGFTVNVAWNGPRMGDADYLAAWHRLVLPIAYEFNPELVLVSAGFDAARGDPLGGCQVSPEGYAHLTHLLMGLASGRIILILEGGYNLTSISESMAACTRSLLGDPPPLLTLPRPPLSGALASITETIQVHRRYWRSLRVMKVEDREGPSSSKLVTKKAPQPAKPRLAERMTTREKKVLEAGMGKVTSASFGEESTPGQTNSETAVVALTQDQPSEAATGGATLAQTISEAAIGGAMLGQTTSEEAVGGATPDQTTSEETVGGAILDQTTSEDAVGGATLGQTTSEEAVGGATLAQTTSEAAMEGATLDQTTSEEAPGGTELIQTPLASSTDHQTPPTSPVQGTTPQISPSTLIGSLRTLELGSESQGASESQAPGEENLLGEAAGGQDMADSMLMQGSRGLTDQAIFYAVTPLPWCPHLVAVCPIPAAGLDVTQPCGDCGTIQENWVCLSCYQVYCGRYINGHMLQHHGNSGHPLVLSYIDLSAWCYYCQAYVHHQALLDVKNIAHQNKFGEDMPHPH
UniProt P26599: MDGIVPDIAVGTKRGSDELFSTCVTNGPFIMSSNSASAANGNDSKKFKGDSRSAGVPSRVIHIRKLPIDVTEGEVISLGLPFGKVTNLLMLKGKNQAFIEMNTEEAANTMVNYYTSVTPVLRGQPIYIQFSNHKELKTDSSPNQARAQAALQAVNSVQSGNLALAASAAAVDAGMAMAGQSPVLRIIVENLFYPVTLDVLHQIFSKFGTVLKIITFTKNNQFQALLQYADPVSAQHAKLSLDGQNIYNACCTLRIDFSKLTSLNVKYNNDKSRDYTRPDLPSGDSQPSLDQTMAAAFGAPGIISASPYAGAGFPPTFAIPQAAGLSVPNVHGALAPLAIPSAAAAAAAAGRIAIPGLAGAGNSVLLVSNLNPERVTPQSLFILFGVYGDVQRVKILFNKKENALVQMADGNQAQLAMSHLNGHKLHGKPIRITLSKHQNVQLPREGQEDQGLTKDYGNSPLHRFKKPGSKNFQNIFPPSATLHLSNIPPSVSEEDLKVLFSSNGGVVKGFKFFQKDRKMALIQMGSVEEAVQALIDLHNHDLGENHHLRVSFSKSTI

Legend:
[1] = molecular target: HDAC6 (histone deacetylase 6) (human (endogenous in MCF7)) (UniProt Q9UBN7); experiment: co-IP; sequential co-IP: 1 mg MCF7 nuclear extract precipitated first with 3 ug anti-SMAR1, eluate precipitated again with 2 ug anti-HDAC6, final eluate probed with anti-PTBP1
[2] = molecular target: T1, SMAR1 (scaffold/matrix attachment region-binding protein 1) (human (endogenous in MCF7)) (UniProt Q8N9N5); experiment: as above
T1 sequence: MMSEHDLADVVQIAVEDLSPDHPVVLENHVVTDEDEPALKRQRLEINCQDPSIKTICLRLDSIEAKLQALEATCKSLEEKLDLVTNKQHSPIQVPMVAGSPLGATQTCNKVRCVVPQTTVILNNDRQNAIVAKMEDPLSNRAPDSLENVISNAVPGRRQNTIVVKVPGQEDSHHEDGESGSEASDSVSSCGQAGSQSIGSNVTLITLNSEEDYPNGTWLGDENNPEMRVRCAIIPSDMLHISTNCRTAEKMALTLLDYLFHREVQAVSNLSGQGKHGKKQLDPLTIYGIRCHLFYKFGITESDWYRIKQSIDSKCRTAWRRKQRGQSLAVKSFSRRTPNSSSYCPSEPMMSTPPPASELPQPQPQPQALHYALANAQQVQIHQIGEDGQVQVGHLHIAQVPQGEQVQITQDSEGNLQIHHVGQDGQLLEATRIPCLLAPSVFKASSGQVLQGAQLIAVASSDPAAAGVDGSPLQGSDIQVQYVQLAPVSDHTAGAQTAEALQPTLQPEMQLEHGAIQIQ

[3] = molecular target: HDAC6 (histone deacetylase 6) (human (endogenous in MCF7)) (UniProt Q9UBN7); experiment: co-IP; 500 ug MCF7 nuclear extract, pre-cleared with normal IgG Dynabeads G, 12 h at 4 C with antibody cross-linked (DMP) to Dynabeads G; washed in IP buffer (1x PBS, 0.1% NP-40); eluates blotted
[4] = molecular target: T1, SMAR1 (scaffold/matrix attachment region-binding protein 1) (human (endogenous in MCF7)); experiment: as above
[5] = molecular target: PTBP1 (polypyrimidine tract-binding protein 1) (human (endogenous in MCF7)) (UniProt P26599); experiment: as above

Measured: binding

PTBP1 (polypyrimidine tract-binding protein 1) (from UniProt P26599 1-557)
binds: [1] | [2] | [3] | [4]

HDAC6 (histone deacetylase 6) (from UniProt Q9UBN7 1-1215) (enzyme)
binds: [2] | [5] | [4]

B1: SMAR1 (scaffold/matrix attachment region-binding protein 1) (protein, UniProt Q8N9N5 1-519)
chain: T1 sequence
binds: [3] | [5]
